# From patent US8409580B2 (AC Immune SA, priority 2003, dated 2013)
# Assay: general procedure: Boc solid-phase peptide synthesis; N-[(1H-benzotriazol-1-yl)(dimethylamino)methylene]-N-methylmethanaminium hexaflu
# Conditions: whole synthesis
substance,measurement,value
K-G-GNMTDSFTKAEASILPSITNQSGPNSTLIISNSSLEEE-G-K-K-NH2 (KGGNMTDSFTKAEASILPSITNQSGPNSTLIISNSSLEEEGKK; four palmitic acids; C-terminal amide; listed as Mus musculus),purity (crude or final not stated),91.6%
